Test results reported in doi:10.1101/2023.09.03.556084.
These are yes or no findings as the source states them, for the method shown. Binding seen in cells or lysates may run through a third protein. Binding calls can cover weak binding; strength is not graded here.

Chains of the proteins cited; added tags and fusions are not shown. Lines headed by an entry give the natural chain unless they say otherwise; changes in a name come on top.
UniProt P26039: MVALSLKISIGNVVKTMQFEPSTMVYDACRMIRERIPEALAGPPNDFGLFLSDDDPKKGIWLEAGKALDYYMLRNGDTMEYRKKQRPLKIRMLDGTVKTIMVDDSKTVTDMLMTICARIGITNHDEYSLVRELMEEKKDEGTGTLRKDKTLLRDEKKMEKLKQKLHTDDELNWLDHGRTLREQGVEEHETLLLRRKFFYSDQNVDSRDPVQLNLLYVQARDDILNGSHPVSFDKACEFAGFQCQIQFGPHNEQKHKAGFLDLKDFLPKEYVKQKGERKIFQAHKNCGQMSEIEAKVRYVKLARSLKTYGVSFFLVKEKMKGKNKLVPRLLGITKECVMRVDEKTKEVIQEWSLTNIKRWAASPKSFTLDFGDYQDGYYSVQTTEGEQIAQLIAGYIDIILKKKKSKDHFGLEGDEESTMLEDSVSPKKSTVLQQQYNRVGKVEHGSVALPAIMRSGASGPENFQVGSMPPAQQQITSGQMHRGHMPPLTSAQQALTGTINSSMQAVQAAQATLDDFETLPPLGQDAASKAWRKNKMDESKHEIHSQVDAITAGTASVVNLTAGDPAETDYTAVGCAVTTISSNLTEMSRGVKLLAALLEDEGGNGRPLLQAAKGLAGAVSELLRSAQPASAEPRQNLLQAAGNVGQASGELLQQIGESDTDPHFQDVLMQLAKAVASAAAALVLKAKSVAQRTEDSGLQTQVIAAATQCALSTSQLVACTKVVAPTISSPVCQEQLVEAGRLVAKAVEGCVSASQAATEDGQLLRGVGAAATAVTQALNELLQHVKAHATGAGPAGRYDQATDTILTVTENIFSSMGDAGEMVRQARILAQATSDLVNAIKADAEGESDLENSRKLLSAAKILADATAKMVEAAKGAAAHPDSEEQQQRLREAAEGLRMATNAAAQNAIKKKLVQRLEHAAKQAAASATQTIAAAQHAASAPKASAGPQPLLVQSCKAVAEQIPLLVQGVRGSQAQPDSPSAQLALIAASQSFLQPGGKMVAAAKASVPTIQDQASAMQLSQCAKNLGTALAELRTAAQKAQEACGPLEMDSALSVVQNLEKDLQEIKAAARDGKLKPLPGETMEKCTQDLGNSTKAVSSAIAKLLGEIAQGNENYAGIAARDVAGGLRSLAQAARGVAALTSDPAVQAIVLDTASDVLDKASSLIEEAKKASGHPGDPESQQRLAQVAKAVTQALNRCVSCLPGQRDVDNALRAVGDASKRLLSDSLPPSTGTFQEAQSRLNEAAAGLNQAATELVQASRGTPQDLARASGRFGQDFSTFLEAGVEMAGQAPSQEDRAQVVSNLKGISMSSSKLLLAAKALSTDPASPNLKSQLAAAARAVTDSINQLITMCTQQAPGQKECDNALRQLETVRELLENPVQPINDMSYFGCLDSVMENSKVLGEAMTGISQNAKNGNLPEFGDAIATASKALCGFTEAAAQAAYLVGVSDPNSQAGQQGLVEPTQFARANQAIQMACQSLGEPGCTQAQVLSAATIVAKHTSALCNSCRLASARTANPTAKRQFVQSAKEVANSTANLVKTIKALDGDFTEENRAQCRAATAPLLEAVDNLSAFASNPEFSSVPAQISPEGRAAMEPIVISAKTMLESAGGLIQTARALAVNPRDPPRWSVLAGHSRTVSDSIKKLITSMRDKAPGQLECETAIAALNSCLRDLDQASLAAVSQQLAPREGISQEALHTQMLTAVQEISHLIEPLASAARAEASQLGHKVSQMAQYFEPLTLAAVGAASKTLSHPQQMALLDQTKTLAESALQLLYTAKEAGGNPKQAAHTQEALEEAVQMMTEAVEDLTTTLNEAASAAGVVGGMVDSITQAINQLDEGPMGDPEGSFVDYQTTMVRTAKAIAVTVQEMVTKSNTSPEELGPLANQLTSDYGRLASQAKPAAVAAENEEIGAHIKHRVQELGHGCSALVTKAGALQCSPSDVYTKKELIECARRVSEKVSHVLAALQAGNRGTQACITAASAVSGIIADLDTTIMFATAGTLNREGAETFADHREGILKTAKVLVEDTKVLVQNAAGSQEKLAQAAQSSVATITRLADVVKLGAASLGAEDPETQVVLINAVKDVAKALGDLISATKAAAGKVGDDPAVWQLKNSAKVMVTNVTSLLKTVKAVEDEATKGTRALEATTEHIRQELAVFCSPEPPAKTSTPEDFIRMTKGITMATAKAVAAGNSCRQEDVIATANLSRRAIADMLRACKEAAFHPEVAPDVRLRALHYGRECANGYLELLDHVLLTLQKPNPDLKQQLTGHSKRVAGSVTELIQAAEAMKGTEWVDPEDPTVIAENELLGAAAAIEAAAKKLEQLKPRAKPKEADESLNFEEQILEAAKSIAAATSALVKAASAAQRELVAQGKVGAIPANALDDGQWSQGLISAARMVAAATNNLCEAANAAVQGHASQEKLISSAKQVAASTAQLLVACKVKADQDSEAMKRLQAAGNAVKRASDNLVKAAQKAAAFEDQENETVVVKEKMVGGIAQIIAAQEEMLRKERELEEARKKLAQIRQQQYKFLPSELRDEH

Key:
Test in all cases: co-IP
[1] = target: GFP-tagged talin 1 R1 domain, wild type (mouse) (UniProt P26039)
[2] = target: GFP-tagged talin 1 R1R2 domain, wild type (mouse) (UniProt P26039)
[3] = target: GFP-tagged talin 1 R2 domain, wild type (mouse) (UniProt P26039)

- binding [1]: binds weakly
- binding [2]: binds weakly
- binding [3]: binds
Substance: Flag-tagged ARPC5L (from UniProt Q9BPX5 1-153)
